A short description of test [1]: Validation of Assay for Modulators of Lamin A Splicing (AID 1459). The note with it: Lamin A splicing dual RFP/GFP fluorescence reporter, ratio. The essentials: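 S3 HeLa cells stably expressing a lamin A-EGFP splicing minigene and DsRed2 were seeded at 600 cells/well in Opti-MEM with 2% FBS, pin-dosed, and incubated 48 hrs at 37 °C, 5% CO2. Laser-scanning cytometry (488 nm) gave GFP/RFP total intensity ratio.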

Amino acid sequences for entries named in this document (tags omitted). A change or cut given only in a name is not applied to a line headed by its entry.
UniProt P21964: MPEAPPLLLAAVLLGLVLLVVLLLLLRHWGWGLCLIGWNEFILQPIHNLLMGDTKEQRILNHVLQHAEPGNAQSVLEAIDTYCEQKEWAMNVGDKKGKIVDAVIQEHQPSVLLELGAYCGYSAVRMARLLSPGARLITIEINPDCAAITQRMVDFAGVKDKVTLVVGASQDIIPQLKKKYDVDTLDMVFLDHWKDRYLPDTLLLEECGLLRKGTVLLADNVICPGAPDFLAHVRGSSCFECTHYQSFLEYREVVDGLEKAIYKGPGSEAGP
UniProt P11086: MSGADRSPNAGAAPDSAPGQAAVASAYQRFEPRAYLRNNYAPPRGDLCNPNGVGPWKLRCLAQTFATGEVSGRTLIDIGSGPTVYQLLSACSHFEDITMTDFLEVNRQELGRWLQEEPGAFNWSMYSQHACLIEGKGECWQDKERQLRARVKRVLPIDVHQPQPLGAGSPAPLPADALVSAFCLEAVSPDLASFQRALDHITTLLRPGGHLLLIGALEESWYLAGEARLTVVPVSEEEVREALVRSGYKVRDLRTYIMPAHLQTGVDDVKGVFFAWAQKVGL

A short description of test [2]: qHTS Assay for Lipid Storage Modulators (AID 1519). The note with it: Drosophila S3 cells, BODIPY lipid droplet/cell ratio, laser cytometry, cells loaded with oleic acid. The essentials: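 Cells seeded at 5,000 per well were treated with compounds over a concentration series and loaded with oleic acid (400 uM, as added). Lipid droplet fluorescence (488 nm excitation, 500-530 nm channel) was read by laser-scanning cytometry and normalized to 20 uM Triacsin C.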

The nature of test [3]: qHTS Assay for Modulators of Human Peripheral Myelin Protein 22 (PMP22) Expression/Activity (AID 1967). Conditions: Cell-based PMP22 reporter, dual-color luciferase ratio. Summed up: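 MSC80 mouse Schwann cells stably carrying Pmp22 promoter–green click beetle luciferase plus EF-alpha–red luciferase control were dosed for 24h at 37 °C. Dual-colour luminescence was filter-overlap corrected; %Activity came from green/red ratio versus untreated cells.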
In general terms: qHTS replaces the single test concentration by a dilution series.

The nature of test [4]: S16 Schwann cell PMP22 intronic element beta-lactamase assay (AID 624044). The note with it: S16 rat Schwann cells, PMP22 element beta-lactamase FRET, 24 h. The essentials: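 Rat S16 Schwann cells with beta-Lac driven by a PMP22 intronic element, compound-treated 24 h at 37 °C. LiveBLAzer FRET B/G read: 460 nm normalized to potassium clavulanate vs DMSO; 535 nm FRET as viability; concentration-effect curves classified.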

A short description of test [5]: qHTS Validation Assay to Find Inhibitors of Chronic Active B-Cell Receptor Signaling (AID 485345). The note with it: ABC-DLBCL cells, chronic BCR signaling reporter. Summed up:
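TMD8 ABC-DLBCL cells stably carrying doxycycline-inducible IkappaBalpha–green luciferase fusion plus unfused red luciferase; compounds 46 uM to 3 nM, 4 h at 37C with doxycycline. Corrected green/red luminescence ratio normalized to 10 uM MG-132 and basal cell wells; curves fitted.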

Test [6] in a line: Nrf2 qHTS screen for inhibitors: Validation (AID 493153). The note with it: A549 ARE-Fluc reporter, 18-24 h; AC50: CellTiter-Fluor fluorescence read, measured here: cytotoxicity CellTiter-Fluor AC50; viability change: measured here: cytotoxicity max response. The essentials:
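Luminescence from an ARE-firefly luciferase reporter in A549 cells gives Nrf2 inhibition; an earlier CellTiter-Fluor fluorescent read flags cytotoxicity. Cells in 5% FBS OPTI-MEM received compound dilution series for 18-24 h at 37°C.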

Test [7] can be described thus: qHTS assay for small molecule antagonists of peroxisome proliferator-activated receptor delta signaling (AID 588535).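 Note: cells co-treated with a PPAR-delta agonist as stimulator during compound exposure.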 Conditions: HEK293T PPARd-UAS-bla, beta-lactamase FRET ratio, 18 h; 460 nm channel. Summed up: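 Antagonist-mode beta-lactamase reporter (GeneBLAzer PPAR-delta-UAS-bla) in HEK293T cells, 2% charcoal/dextran FBS, 4000 cells/well. Compound titrations, 18 h at 37 C; CCF4 ratio read, IC50 and efficacy from Hill fits.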

A short description of test [8]: qHTS assay for small molecule antagonists of peroxisome proliferator-activated receptor gamma signaling (AID 588537). Conditions: HEK293 PPARg-UAS-bla, beta-lactamase ratio, antagonist mode; measured here: W460 blue channel. The essentials: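 PPARγ-UAS-bla HEK293 cells (3000/well) in 1% charcoal/dextran-stripped FBS are treated with compound, then stimulated with 50 nM rosiglitazone for 16 h at 37 °C. Read-out is CCF4 β-lactamase fluorescence after 2 h at RT. IC50 comes from Hill fits normalised to rosiglitazone and DMSO.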

The nature of test [9]: qHTS assay for small molecule antagonists of vitamin D receptor signaling (AID 588541). Conditions: HEK293T VDR-UAS-bla, beta-lactamase ratio, antagonist mode; measured here: W460 blue channel (cell viability).
Test [10] in a line: qHTS assay for small molecule agonists of retinoid X receptor alpha signaling (AID 588544). Conditions: HEK293T RXRa-UAS-bla, beta-lactamase reporter, 18 h; 530 nm emission.
Test [11] can be described thus: qHTS assay for small molecule antagonists of retinoid X receptor alpha signaling (AID 588546).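 Note: cells stimulated with 9-cis-retinoic acid as agonist; % is set by controls: 0 for no effect and ±100 for the full control effect.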 The note with it: HEK293T RXRa-UAS-bla, beta-lactamase ratio, antagonist mode; measured here: W530 green channel, cytotoxicity proxy. Summed up:
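Beta-lactamase reporter inhibition, read as CCF4 fluorescence ratio (ex 405, em 460/530 nm) after 2 h at RT. HEK293T UAS-bla cells, 2500/well, were stimulated with 9-cis-RA at 500 or 100 nM final alongside test compound for 18 h at 37 C.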

The nature of test [12]: A High-Content qHTS Against Drug Library for the Identification of Small Molecules that Inhibit DYT1 Early Onset Primary Dystonia-Associated Cell Pathology (AID 1645839). The note with it: HEK293 Flp-In EGFP-delE TorsinA, punctate imaging, 48 h; measured here: cell count cytotoxicity. The essentials: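 Flp-In T-REx 293 cells with tetracycline-inducible EGFP-delE hTOR1A (WT EGFP-hTOR1A as reference), 800 cells/well; compound added with tetracycline, 48 h at 37 C. Fixed, permeabilized cells imaged; %pathology (punctate TorsinA) primary, cell count counterscreen.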

Test [13] deals with Catechol O-methyltransferase (Homo sapiens) (UniProt P21964). Put plainly: Confirmatory Screen for Target Class Profiling of Small Molecule Inhibitors of Methyltransferases (AID 1745852). Conditions: MTase-Glo luminescence, SAH detection, recombinant enzyme; measured here: COMT inhibition potency.
Test [14] has as its target Phenylethanolamine N-methyltransferase (Homo sapiens) (UniProt P11086). The test is described as above. Conditions: MTase-Glo luminescence, SAH detection, recombinant enzyme; measured here: PNMT inhibition potency.
Test [15] is described as follows: qHTS drug screen for cell cycle checkpoint inhibitors in PARPi-resistant BRCA-mutant ovarian cancer cell lines. (AID 1963452). Conditions: PEO1/OlaR viability, CellTiter-Glo luminescence, 96 h. Summed up: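 PEO1, PEO4 and PEO1/OlaR ovarian cancer cells, 600 per well, exposed 96 h at 37C to a dilution series. Viability read by CellTiter-Glo luminescence, normalized to DMSO and empty wells; activity summarized as Z-AUC.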

[16] abbreviates: measured here: cell count channel max response.
The mark [17] stands for this setting: measured here: lipid channel max response.
[18] abbreviates: measured here: green reporter channel AC50, mouse Pmp22 promoter in mouse Schwann cells.
Setting [19] is: measured here: red reporter channel AC50, EF-alpha promoter control reporter in MSC80 mouse Schwann cells.
Where [20] appears, read: measured here: 460 nm blue channel.
[21] abbreviates: measured here: 530 nm viability channel.
The mark [22] stands for this setting: measured here: CBG/CBR ratio read-out.
Setting [23] is: measured here: CBR control luciferase (viability counter).

Structures are written as SMILES. Several values for one entry are separate records, joined by “and”; a condition that tells them apart may be missing. Identical values can stand only once. Some of the results follow. These are further read-outs of the screen, such as a control signal, another cell line or another target. No call is given for them. For some assays here: Most of these compounds were active or inconclusive in the main read-out, so they are no random draw. For some assays here: The note in brackets gives the kind of curve behind each potency; many fits are weak.

Usually AC50 stands for the midpoint of the concentration-response curve, whichever way the signal moves. The term IC50 denotes the point on the concentration scale where inhibition reaches its midpoint.

As for `O=C1NCN(c2ccccc2)C12CCN(CCCC(c1ccc(F)cc1)c1ccc(F)cc1)CC2`, the half-maximal activity concentration (AC50) in test [1] (measured here: GFP channel) is 15.8 µM [falling, partial curve]; in test [1] (measured here: RFP channel), 12.6 µM [falling, partial curve]; in test [3] (setting [18]), 33.8 µM [falling, full curve]; in test [3] (setting [19]), 21.3 µM [falling, full curve]; in test [4] (setting [20]), 22.4 µM [falling, partial curve]; in [4] (setting [21]), 31.6 µM [falling, single point]. Moreover, the max response was -90.3% in test [2] (setting [16]) and -105% in [2] (setting [17]).

For `CC1=C(/C=C/C(C)=C/C=C/C(C)=C/C(=O)Nc2ccc(O)cc2)C(C)(C)CCC1`, the AC50 was 20 µM [rising, single point] in [1] (measured here: GFP channel); 20 µM [rising, single point] in test [1] (measured here: RFP channel); 95.3 µM [falling, single point] in [3] (setting [18]); 84.9 µM [falling, single point] in test [3] (setting [19]); 13 µM [falling, partial curve] in test [5] (setting [22]); 16.4 µM [falling, partial curve] in [6]. The AC50 in test [8] was 1.26 µM [falling, full curve, poor fit]; in test [9] it was 31.6 µM [falling, partial curve, poor fit]; in test [4] (setting [20]), 14.1 µM [falling, partial curve]; in [4] (setting [21]), 10 µM [rising, full curve]; in test [12], 1.58 µM [falling, full curve, poor fit]. Moreover, the max response in test [2] (setting [16]) was 47.1%; in test [2] (setting [17]) it was 46.9%; in test [7], -76.7%; in test [10], -68.4%; in test [11], -58.1%. In addition, the viability change in test [6] was -30.3%.

Consider `C#C[C@]1(O)CC[C@H]2C3CCC4=Cc5oncc5CC4(C)C3CCC21C` (stereo not given in full), for which the AC50 is 0.562 µM [rising, full curve] in test [1] (measured here: GFP channel); 0.562 µM [rising, full curve] in test [1] (measured here: RFP channel); 60.1 µM [falling, partial curve] in [3] (setting [18]); 42.6 µM [falling, partial curve] in test [3] (setting [19]). Moreover, the max response in test [2] (setting [16]) was found to be 42.9%; in test [2] (setting [17]), 46.2%.

Turning to `C=C1C(=O)O[C@@H]2[C@H]3O[C@]3(C)CCC=C(C)CC[C@@H]12`, the AC50 in test [1] (measured here: GFP channel) is 17.8 µM [falling, partial curve]; in [1] (measured here: RFP channel) it was 12.6 µM [falling, partial curve]; in test [3] (setting [18]) it was 42.6 µM [falling, full curve]; in test [3] (setting [19]), 37.9 µM [falling, full curve]; in test [5] (setting [22]) it was 3.66 µM [falling, full curve]; in [5] (setting [23]), 6.51 µM [falling, full curve]. For the same compound, the max response in test [2] (setting [16]) was 26.3% and 56.6%; in [2] (setting [17]), -92.3% and 57%. Further, the viability change in test [6] is -11.9%.

Regarding `O=C(c1cc(O)c(O)c([N+](=O)[O-])c1)c1ccccc1F`, the AC50 in test [1] (measured here: GFP channel) was 35.5 µM [falling, single point]; in [1] (measured here: RFP channel), 35.5 µM [falling, single point]; in test [3] (setting [19]) it was 95.3 µM [falling, single point]; in [6], 16.4 µM [falling, single point]. For the same compound, the viability change in [6] is -30.2%. The IC50 in test [13] was 21.7 nM [falling, full curve]; in test [14], 24.3 µM [falling, partial curve, poor fit].

On to `O=C(O)CCCC[C@@H]1CCSS1`, for which the half-maximal activity concentration (AC50) was 35.5 µM [falling, single point] in test [1] (measured here: GFP channel); 35.5 µM [falling, single point] in test [1] (measured here: RFP channel); 33.8 µM [rising, single point] in test [3] (setting [19]).

In the case of `COc1cc(NS(C)(=O)=O)ccc1Nc1c2ccccc2nc2ccccc12`, the AC50 is 0.794 µM [falling, full curve] in [1] (measured here: GFP channel); 0.794 µM [falling, full curve] in test [1] (measured here: RFP channel); 26.9 µM [falling, partial curve] in test [3] (setting [18]); 0.0849 µM [falling, full curve] in [3] (setting [19]); 11.6 µM [falling, partial curve] in [6]; 0.251 µM [falling, full curve] in test [4] (setting [20]). The AC50 in test [4] (setting [21]) is 8.91 µM [rising, partial curve]; in [15] (measured here: PEO1 parental viability), 174 nM [falling, full curve]; in [15] (measured here: PEO4 viability), 2450 nM [falling, partial curve]. For the same compound, the viability change in test [6] was -60.6%.

For the compound `O=S(=O)(c1cccc2c(I)cccc12)N1CCCNCC1`, the concentration at half-maximal activity (AC50) was 35.5 µM [falling, single point] in test [1] (measured here: GFP channel); 35.5 µM [falling, single point] in test [1] (measured here: RFP channel); 18.4 µM [falling, single point] in test [5] (setting [22]); 9.2 µM [falling, partial curve, poor fit] in test [5] (setting [23]); 138 nM [falling, full curve, poor fit] in test [15] (measured here: PEO4 viability).

The record behind these values is PubChem BioAssay (NCATS).
